The assay has as its target T1, Ddx56-GST (full-length mouse DEAD-box helicase 56, GST-tagged) (mouse) (UniProt Q9D0R4).
T1 sequence: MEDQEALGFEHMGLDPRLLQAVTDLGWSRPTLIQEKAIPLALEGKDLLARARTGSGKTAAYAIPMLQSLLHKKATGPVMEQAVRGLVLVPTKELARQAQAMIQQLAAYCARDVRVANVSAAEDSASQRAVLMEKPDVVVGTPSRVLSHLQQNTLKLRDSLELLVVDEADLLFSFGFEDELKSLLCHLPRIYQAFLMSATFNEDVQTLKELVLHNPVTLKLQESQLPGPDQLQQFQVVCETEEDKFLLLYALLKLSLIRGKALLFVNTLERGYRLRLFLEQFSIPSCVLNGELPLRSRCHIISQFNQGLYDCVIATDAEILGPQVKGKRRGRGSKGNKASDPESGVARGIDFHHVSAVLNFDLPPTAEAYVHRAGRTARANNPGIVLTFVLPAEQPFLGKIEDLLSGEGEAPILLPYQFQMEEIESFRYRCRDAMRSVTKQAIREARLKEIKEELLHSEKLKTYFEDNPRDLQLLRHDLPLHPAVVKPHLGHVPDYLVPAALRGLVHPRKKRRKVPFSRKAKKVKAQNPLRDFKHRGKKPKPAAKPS
Description: pull-down; GST-tagged bait and SFB- or HA-tagged prey cotransfected into 293T cells; lysis in 1x NETN buffer (40 mM Tris-HCl pH 8.0, 100 mM NaCl, 0.5% NP40, 1 mM EDTA, 10% glycerol); Glutathione Sepharose 4B, 4 h at 4 °C; western blot (the paper also calls it co-IP). For orientation: Immunoblotting shows a protein as a band on a membrane.

Sequences of proteins named here, by UniProt entry; tags and fusion partners are left off.
UniProt P48432: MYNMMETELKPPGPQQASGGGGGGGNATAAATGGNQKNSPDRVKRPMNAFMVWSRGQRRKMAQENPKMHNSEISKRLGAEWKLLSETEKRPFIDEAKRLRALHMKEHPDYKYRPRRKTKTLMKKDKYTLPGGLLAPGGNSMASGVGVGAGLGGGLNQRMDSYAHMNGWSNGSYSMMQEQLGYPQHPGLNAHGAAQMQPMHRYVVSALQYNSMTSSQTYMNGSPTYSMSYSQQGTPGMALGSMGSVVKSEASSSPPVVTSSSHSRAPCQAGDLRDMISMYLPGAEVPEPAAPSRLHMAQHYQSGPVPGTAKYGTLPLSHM

No constants are given. Whether binding was seen depends on the method and setting. Binding seen in cells or lysates may run through a third protein. Some entries that bind do so weakly or less than the wild type. Tags and fused reporters may be left off the sequences shown.

Take Sox2-HA (from UniProt P48432 1-319): the binding result is listed as “binds”.

In the case of Sox2-SFB (from UniProt P48432 1-319), the binding entry is on record as “binds”.

These data come from publication PMC7376950.
